Series [1] in a line: physchem. Conditions: buffer, pH 7.4.
The nature of series [2]: physchem. The conditions noted are these: buffer, pH 7.4. This is another data set of the same source.

≈ marks a conversion by molar mass, not a printed value.

A word on the logD: it is the decadic logarithm of the distribution of all forms, ionised or not, between an organic phase and buffer at a given pH. Higher therefore signals higher lipophilicity. One may read the solubility as the dissolved amount per volume that the medium holds. A high value points to much dissolved substance. The compound `Nc1ccc2[nH]c(CN3C(=O)c4cc(F)ccc4[C@]34CCN(Cc3ccc(F)cc3)C4=O)nc2n1` showed a logD in the series “physchem [1]” of 2. This compound also displayed a solubility at 24 h in “physchem [2]” of 413 µM (≈ 196 µg/mL).
Consider `N=C(N)Nc1ncc(CN2C(=O)c3ccccc3C2C(=O)NCc2ccc(F)cc2)s1` (centres undefined), for which, in the series “physchem [1]”, the logD was 2.1. This compound also gave a solubility at 24 h in the series “physchem [2]” of 317 µM (≈ 139 µg/mL).

The record behind these values is ChEMBL document CHEMBL5576120, “Discovery and In Vivo Efficacy of AZ-PRMT5i-1, a Novel PRMT5 Inhibitor with High MTA Cooperativity” (J Med Chem, 2024).
